Measurements taken from the supplement of paper PMC12067093, “Discovery and optimisation of a covalent ligand for TRIM25 and its application to targeted protein ubiquitination” (Chemical Science, 2025).
The other results are listed elsewhere or left out.

Chains of the proteins cited; added tags and fusions are not shown. Lines headed by an entry give the natural chain unless they say otherwise; changes in a name come on top.
UniProt P05198, whole entry, looked up: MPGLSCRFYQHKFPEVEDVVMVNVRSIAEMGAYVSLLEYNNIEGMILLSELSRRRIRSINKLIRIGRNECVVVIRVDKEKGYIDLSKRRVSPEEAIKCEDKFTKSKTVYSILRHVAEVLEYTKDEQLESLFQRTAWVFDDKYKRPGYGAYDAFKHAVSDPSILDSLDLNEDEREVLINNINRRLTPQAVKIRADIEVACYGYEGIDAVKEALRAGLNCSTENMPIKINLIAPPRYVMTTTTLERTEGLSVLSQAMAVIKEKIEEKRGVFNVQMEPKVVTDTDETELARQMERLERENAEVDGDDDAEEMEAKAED
UniProt P20042, whole entry, looked up: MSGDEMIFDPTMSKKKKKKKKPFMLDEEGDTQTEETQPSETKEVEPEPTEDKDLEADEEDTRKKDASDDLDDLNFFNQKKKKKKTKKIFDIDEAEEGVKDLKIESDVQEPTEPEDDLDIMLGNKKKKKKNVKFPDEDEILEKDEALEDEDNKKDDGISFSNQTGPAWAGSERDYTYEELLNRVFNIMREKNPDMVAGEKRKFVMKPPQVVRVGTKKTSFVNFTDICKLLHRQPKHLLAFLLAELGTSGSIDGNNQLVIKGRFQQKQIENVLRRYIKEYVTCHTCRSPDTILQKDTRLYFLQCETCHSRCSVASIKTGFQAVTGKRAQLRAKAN
UniProt Q16610: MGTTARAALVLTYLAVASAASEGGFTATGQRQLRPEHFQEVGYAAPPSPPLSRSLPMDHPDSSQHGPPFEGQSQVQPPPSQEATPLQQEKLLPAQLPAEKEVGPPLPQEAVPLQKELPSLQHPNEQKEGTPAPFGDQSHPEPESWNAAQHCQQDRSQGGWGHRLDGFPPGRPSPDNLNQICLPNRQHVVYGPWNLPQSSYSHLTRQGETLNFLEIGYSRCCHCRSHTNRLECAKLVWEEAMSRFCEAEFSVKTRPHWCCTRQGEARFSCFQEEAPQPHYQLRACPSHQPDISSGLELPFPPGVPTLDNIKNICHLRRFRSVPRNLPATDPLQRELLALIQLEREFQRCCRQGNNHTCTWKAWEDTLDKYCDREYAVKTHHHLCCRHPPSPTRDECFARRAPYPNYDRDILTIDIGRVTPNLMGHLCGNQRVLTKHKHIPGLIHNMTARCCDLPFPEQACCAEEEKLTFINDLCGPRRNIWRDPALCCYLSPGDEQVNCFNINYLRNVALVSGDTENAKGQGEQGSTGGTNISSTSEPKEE
UniProt P57772: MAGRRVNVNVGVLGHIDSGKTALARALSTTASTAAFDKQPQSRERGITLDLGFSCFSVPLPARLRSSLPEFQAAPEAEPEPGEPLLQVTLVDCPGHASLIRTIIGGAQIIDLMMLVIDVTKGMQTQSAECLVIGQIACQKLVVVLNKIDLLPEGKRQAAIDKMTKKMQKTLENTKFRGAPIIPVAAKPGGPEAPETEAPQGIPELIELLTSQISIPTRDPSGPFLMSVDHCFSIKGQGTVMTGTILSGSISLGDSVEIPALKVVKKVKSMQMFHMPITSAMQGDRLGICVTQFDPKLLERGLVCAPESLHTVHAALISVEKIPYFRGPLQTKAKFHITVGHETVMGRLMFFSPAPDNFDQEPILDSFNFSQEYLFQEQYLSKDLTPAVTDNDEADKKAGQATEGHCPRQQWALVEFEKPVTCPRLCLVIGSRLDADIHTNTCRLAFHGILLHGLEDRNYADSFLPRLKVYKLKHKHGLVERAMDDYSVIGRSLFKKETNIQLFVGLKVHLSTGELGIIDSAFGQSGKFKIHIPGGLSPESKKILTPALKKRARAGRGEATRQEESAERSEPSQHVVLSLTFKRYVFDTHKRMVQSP
UniProt Q9NR50: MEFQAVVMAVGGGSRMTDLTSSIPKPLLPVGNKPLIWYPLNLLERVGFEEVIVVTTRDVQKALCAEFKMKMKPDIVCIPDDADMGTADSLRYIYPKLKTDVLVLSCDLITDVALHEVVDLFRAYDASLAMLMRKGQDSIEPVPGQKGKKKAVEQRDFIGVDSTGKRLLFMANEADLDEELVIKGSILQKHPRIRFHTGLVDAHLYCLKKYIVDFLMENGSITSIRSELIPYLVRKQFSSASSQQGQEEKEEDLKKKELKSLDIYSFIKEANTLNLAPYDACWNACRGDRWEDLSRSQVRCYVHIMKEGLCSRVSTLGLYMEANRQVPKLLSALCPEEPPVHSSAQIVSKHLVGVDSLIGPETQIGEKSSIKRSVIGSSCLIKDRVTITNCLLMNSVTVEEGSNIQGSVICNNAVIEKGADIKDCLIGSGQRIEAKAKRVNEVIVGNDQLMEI
UniProt O75530, whole entry, looked up: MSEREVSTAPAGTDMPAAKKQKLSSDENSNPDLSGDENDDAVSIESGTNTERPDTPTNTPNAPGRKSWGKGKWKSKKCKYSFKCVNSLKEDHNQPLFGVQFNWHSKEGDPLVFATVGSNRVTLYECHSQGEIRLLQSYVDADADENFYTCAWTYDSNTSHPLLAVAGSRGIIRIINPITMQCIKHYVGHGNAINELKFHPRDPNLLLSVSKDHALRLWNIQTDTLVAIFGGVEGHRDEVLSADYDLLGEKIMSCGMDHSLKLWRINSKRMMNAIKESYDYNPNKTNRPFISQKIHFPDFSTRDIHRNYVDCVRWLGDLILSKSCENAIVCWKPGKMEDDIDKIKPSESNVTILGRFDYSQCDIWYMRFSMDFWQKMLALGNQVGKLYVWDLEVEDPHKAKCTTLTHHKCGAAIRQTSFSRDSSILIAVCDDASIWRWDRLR
UniProt Q9H8V3: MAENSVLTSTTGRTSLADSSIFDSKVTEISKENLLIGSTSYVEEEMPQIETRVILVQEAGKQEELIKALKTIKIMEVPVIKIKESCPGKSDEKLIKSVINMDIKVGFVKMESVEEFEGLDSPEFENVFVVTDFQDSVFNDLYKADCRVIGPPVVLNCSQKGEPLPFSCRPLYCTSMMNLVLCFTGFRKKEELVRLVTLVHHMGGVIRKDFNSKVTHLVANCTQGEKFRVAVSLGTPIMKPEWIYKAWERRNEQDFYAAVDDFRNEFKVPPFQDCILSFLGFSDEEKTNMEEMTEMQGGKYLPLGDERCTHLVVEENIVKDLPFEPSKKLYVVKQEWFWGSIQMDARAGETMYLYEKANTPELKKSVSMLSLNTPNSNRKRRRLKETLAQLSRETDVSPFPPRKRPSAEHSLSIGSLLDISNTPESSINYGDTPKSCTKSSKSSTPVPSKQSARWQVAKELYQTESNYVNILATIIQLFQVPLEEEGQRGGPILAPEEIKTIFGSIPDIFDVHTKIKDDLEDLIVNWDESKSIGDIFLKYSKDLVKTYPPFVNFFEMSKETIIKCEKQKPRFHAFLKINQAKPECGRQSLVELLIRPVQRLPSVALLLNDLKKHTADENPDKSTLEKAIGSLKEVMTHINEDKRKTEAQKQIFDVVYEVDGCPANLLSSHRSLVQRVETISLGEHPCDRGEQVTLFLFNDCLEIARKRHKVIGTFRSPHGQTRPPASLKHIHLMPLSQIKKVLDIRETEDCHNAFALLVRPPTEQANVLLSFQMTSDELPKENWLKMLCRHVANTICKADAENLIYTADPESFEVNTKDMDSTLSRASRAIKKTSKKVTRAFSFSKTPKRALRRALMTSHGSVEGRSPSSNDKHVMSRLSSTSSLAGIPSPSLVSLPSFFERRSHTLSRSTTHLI
UniProt Q96F86: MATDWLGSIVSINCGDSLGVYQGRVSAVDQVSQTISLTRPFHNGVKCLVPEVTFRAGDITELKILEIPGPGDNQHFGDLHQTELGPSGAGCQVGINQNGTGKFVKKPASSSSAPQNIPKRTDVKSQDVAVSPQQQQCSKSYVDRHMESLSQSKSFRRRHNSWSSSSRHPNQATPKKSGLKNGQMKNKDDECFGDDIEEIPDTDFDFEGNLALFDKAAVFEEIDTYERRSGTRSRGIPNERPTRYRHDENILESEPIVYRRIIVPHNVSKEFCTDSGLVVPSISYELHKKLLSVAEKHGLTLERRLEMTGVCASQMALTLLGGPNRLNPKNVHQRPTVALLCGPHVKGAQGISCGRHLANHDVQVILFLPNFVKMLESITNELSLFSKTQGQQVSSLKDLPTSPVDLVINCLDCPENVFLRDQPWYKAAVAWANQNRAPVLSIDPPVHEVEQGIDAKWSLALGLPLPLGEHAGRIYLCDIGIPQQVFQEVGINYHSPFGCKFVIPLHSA
UniProt Q5VYK3, whole entry, looked up: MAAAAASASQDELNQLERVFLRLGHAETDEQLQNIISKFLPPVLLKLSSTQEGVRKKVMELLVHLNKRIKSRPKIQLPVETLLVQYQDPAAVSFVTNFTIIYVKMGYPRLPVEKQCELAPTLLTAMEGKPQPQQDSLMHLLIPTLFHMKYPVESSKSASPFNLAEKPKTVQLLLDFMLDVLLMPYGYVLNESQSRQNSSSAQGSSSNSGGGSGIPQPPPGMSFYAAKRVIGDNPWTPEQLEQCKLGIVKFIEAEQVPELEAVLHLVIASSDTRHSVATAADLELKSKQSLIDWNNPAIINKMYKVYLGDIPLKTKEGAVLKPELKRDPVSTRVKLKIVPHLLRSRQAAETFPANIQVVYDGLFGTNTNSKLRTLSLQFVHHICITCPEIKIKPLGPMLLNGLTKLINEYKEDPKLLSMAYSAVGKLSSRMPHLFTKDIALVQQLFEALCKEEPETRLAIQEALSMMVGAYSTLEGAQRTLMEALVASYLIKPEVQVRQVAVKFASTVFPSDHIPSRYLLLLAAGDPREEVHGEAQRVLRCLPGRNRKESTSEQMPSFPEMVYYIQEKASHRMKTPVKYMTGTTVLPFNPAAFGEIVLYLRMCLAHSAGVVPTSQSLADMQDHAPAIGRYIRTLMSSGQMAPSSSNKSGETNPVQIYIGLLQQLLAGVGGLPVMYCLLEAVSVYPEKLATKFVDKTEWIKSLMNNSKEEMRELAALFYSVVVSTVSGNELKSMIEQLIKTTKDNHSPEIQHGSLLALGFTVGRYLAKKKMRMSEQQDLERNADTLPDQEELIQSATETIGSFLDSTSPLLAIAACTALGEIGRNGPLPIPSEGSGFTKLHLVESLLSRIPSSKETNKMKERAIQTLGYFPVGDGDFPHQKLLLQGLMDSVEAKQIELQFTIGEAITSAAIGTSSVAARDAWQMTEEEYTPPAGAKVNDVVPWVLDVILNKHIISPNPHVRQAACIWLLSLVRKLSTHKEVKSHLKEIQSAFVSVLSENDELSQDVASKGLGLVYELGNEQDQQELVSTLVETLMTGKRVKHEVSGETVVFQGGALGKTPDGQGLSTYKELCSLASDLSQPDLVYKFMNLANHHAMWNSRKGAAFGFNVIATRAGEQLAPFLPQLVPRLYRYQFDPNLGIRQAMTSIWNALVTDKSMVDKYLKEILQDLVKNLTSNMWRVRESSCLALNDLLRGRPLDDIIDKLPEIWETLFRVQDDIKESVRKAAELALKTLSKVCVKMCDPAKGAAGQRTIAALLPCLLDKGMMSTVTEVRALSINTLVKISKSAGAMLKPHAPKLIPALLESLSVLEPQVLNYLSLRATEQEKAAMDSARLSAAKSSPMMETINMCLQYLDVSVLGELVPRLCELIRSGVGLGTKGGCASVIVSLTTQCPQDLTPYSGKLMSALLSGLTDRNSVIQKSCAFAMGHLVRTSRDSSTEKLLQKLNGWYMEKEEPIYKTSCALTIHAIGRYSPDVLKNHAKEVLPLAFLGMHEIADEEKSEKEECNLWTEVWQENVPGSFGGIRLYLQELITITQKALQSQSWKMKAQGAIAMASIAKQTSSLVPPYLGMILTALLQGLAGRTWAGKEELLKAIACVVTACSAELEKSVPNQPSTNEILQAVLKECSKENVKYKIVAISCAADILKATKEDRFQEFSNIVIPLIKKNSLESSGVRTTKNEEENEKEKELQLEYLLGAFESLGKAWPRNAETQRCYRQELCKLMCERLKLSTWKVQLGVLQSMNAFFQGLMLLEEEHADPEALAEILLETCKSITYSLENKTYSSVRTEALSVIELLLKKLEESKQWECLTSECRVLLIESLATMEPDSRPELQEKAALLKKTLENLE

These targets were tested with CC1Cc2ccccc2N1C(=O)C1CCCN(C1)C(=O)CCl (mixture of isomers) [TRIM25 ligand 11 (diastereomer mixture)] (assay: probe-labelled cysteine peptide fold change vs DMSO (competition) (log2 fold change); higher = less target engagement (more negative = stronger competition)). Conditions: 10 µM; THP-1; incubation time: 4 h.
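Also: competitive chemoproteomic profiling in live THP-1 cells with an iodoacetamide desthiobiotin (IA-DTB) probe, comparing probe-labelled peptide intensities in compound-treated cells against DMSO-treated controls.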

Target | probe-labelled cysteine peptide fold change
EFNB1_P98172_89+101_LYLVRPEQAAACSTVLDPNVLVTCNRPEQEIR (UniProt P98172) | 0.0237
EIF2S1_P05198_70_NECVVVIRVDK (UniProt P05198) | -0.282
EIF2S2_P20042_226_TSFVNFTDICK (UniProt P20042) | -0.0942
ECM1_Q16610_450_CCDLPFPEQACCAEEEK (UniProt Q16610) | -0.183
EEFSEC_P57772_289_LGICVTQFDPK (UniProt P57772) | 0.0684
ECM1_Q16610_269_FSCFQEEAPQPHYQLR (UniProt Q16610) | 0.855
EIF2B3_Q9NR50_206_FHTGLVDAHLYCLK (UniProt Q9NR50) | 0.115
EED_O75530_182_IINPITMQCIK (UniProt O75530) | -0.11
ECT2_Q9H8V3_221_VTHLVANCTQGEK (UniProt Q9H8V3) | 0.0356
EFL1_Q7Z2Z2_474_LAAAQGQAPLEPTQDGSAIETCPK (UniProt Q7Z2Z2) | 0.0723
ECT2_Q9H8V3_661_QIFDVVYEVDGCPANLLSSHR (UniProt Q9H8V3) | 0.179
EDC3_Q96F86_341_NVHQRPTVALLCGPHVK (UniProt Q96F86) | 0.0922
EI24_O14681_24_DSIWGICTISK (UniProt O14681) | -0.152
ECPAS_Q5VYK3_602_MCLAHSAGVVPTSQSLADMQDHAPAIGR (UniProt Q5VYK3) | -0.316
EEF1A1_P68104_363+370_GNVAGDSKNDPPMEAAGFTAQVIILNHPGQISAGYAPVLDCHTAHIACK (UniProt P68104) | -0.278

Pulled one by one from the entries so far:
Target | probe-labelled cysteine peptide fold change
ECPAS_Q5VYK3_602_MCLAHSAGVVPTSQSLADMQDHAPAIGR (UniProt Q5VYK3) | -0.316
ECT2_Q9H8V3_661_QIFDVVYEVDGCPANLLSSHR (UniProt Q9H8V3) | 0.179
